These are yes or no findings as the source states them, for the method shown. In cells and extracts the contact can be indirect. Some results given as binding are weak or reduced against the parent protein; the word gives no strength.
Columns and labels:
[1] = biological target: TAR DNA-binding protein of 43 kD (TDP-43), endogenous (human (endogenous in SH-SY5Y and U2OS)) (UniProt Q13148); test: co-IP; endogenous proteins; antibody to NSUN1 (rabbit, N-terminal) or to TDP-43 (mouse) or normal IgG on protein G Dynabeads, U2OS or SH-SY5Y lysate in Pierce IP lysis buffer, 4°C, 18 h; immunoblot for NSUN1 and TDP-43
[2] = biological target: Human TDP-43-Q331K-YFP (human) (UniProt Q13148); test: co-IP; TDP-43-YFP variants transfected into U2OS or SH-SY5Y cells (21 h), precipitated with GFP antibody on protein G Dynabeads from lysate in Pierce lysis buffer; immunoblot for endogenous NSUN1; U2OS cells also after 1 μg/ml actinomycin D
[3] = biological target: Human TDP-43-WT-YFP (human) (UniProt Q13148); test: as above

Measured: binding

B1: NSUN1 isoform 3, endogenous (protein, UniProt P46087-4 1-845)
chain: MGRKLDPTKEKRGPGRKARKQKGAETELVRFLPAVSDENSKRLSSRARKRAAKRRLGSVEAPKTNKSPEAKPLPGKLPKGISAGAVQTAGKKGPQSLFNAPRGKKRPAPGSDEEEEEEDSEEDGMVNHGDLWGSEDDADTVDDYGADSNSEDEEEGEAAGVQWLGLGSLQPPPPGFKQFSCLSFPSSWDLQLLPIERAARKQKAREAAAGIQWSEEETEDEEEEKEVTPESGPPKVEEADGGLQINVDEEPFVLPPAGEMEQDAQAPDLQRVHKRIQDIVGILRDFGAQREEGRSRSEYLNRLKKDLAIYYSYGDFLLGKLMDLFPLSELVEFLEANEVPRPVTLRTNTLKTRRRDLAQALINRGVNLDPLGKWSKTGLVVYDSSVPIGATPEYLAGHYMLQGASSMLPVMALAPQEHERILDMCCAPGGKTSYMAQLMKNTGVILANDANAERLKSVVGNLHRLGVTNTIISHYDGRQFPKVVGGFDRVLLDAPCSGTGVISKDPAVKTNKDEKDILRCAHLQKELLLSAIDSVNATSKTGGYLVYCTCSITVEENEWVVDYALKKRNVRLVPTGLDFGQEGFTRFRERRFHPSLRSTRRFYPHTHNMDGFFIAKFKKFSNSIPQSQTGNSETATPTNVDLPQVIPKSENSSQPAKKAKGAAKTKQQLQKQQHPKKASFQKLNGISKGADSELSTVPSVTKTQASSSFQDSSQPAGKAEGIREPKVTGKLKQRSPKLQSSKKVAFLRQNAPPKGTDTQTPAVLSPSKTQATLKPKDHHQPLGRAKGVEKQQLPEQPFEKAAFQKQNDTPKGPQPPTVSPIRSSRPPPAKRKKSQSRGNSQLLLS
binds: all assays above

Reference: paper PMC12588883
